No constants are given. Whether binding was seen depends on the method and setting. Some entries that bind do so weakly or less than the wild type.
Columns and labels:
[1] = molecular target: human IL-2Rβ (CD122), full-length, on cells (human) (UniProt P14784); experiment: flow cytometry on CHO-K1 cells
[2] = molecular target: human IL-2Rβ (CD122), full-length, on cells (human) (UniProt P14784); experiment: cell-based receptor binding assay (flow cytometry)

The chains behind the UniProt entries cited, without tags or fusion partners. Residues count along the entry.
UniProt P14784, residues 27-551: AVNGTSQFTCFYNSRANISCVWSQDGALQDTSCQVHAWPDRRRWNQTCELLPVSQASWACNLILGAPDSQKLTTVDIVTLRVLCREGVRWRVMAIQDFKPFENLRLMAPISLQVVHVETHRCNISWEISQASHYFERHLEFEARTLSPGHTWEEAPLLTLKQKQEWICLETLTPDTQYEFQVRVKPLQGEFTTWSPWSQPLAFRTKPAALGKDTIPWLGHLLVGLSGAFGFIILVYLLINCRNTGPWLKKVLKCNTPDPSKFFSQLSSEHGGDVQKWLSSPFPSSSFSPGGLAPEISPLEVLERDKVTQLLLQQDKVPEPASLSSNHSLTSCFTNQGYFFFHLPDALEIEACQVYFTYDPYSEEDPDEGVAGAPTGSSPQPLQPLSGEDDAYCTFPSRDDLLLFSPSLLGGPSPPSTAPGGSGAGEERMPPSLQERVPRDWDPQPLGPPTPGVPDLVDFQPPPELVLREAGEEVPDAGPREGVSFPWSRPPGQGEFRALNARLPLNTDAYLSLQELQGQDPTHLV

B1: APE12383 (antibody, V domains shown)
VH: QVQLQQSGAELMKPGASVKISCKSTGYTFSRYWIEWVKQRPGHGLEWIGEILPGSGSINHNEKFQGKATFTADTSSNTVYMQLSSLTSEDSAVYFCTRHYGSFDYWGQGTTLTVSS
VL: EIVMTQSPKFMSTSVGDRVSVTCKASQNVGTDVAWYQQKPGQSPKALIYSASYRYNGVPDRFTGSGSGTDFTLTISNVQSEDLAEYFCHQYSSYPFTFGSGTKLEIKR
binding [1]: binds
binding [2]: binds
